Patent US8022073B2 (priority 2005, dated 2011)
Some of these results come from one statement about several compounds together.

What follows are compounds tested on Alternaria brassicicola (assay: Test Example 3: controlling effect on Japanese radish, foliar spray before inoculation with spores). Settings: 500 ppm spray (Formulation Example 6 diluted with water); Japanese radish WASE 40 days; overnight at 23° C. humid, then 3 days in greenhouse.
Assay type: in vivo
For Cc1nc(-c2c(Cl)nnc(C)c2-c2ccc(Cl)cc2)c(C)s1 [compound (1), 3-chloro-5-(4-chlorophenyl)-4-(2,5-dimethyl-4-thiazolyl)-6-m ethylpyridazine], the “lesion area on treated radish with respect to the lesion area on non-treated districts” value was no more than 30%.
For Cc1nnc(Cl)c(-c2cccs2)c1-c1ccc(Cl)cc1 [compound (8), 3-chloro-5-(4-chlorophenyl)-6-methyl-4-(2-thienyl)pyridazine], the “lesion area on treated radish with respect to the lesion area on non-treated districts” value was no more than 30%.
For Cc1cc(C)n(-c2c(Cl)nnc(C)c2-c2ccc(Cl)cc2)n1 [compound (2), 3-chloro-5-(4-chlorophenyl)-4-(3,5-dimethyl-1-pyrazolyl)-6-m ethylpyridazine], the “lesion area on treated radish with respect to the lesion area on non-treated districts” value was no more than 30%.

The compounds below were run on Magnaporthe grisea (assay: not given). Settings: 500 ppm spray (Formulation Example 6 diluted with water); paddy NIHONBARE; 6 days at 22° C. under humid condition.
Assay type: in vivo
Cc1nc(-c2c(Cl)nnc(C)c2-c2ccc(Cl)cc2)c(C)s1 [compound (1), 3-chloro-5-(4-chlorophenyl)-4-(2,5-dimethyl-4-thiazolyl)-6-m ethylpyridazine] was tested, and the “lesion area on treated paddy with respect to the lesion area on non-treated districts” value was no more than 50%.
In the case of Cc1nnc(Cl)c(-c2cccs2)c1-c1ccc(Cl)cc1 [compound (8), 3-chloro-5-(4-chlorophenyl)-6-methyl-4-(2-thienyl)pyridazine], the “lesion area on treated paddy with respect to the lesion area on non-treated districts” value is reported as no more than 50%.
Cc1cc(C)n(-c2c(Cl)nnc(C)c2-c2ccc(Cl)cc2)n1 [compound (2), 3-chloro-5-(4-chlorophenyl)-4-(3,5-dimethyl-1-pyrazolyl)-6-m ethylpyridazine] was tested, and the “lesion area on treated paddy with respect to the lesion area on non-treated districts” value was no more than 50%.
